From patent US20080085889A1, “Amidomethyl-Substituted 1-(Carboxyalkyl) Cyclopentyl-Carbonylamino-Benzazepine-N-Acetic Acid Compounds, Process and Intermediate Products for Their Preparation and Pharmaceutical Compositions Containing Them” (SOLVAY PHARMACEUTICALS GmbH, priority 2003, published 2008)

System: NEP (prepared from pig kidney cortex)
Assay: Enzymatic breakdown of CNP and VIP by NEP and its inhibition, in vitro, HPLC
Type: biochemical
Conditions: no inhibitor, 37° C.
Method: The inhibition of the enzymatic breakdown of CNP and VIP by the compounds used according to the invention was measured in an enzymatic in vitro assay according to the following protocol:
All test compounds were dissolved in DMSO at 10 mM and further diluted with assay buffer.
80 μl of assay buffer, 10 μl of enzyme working solution (NEP or hSEP) and 10 μl of peptide stock solution (VIP or CNP) were mixed in an Eppendorf vial and incubated for 120 min. at 37° C. The enzymatic reaction was subsequently terminated by heating to 95° C. for 5 min. After centrifugation (Heraeus Biofuge B, 3 min) the supernatant was subjected to HPLC.
70 μl of assay buffer, 10 μl of enzyme working solution (NEP or hSEP) and 10 μl of a test compound solution were mixed in an Eppendorf vial and preincubated at 37° C. for 15 minutes. Then, 10 μl of peptide stock solution (VIP or CNP) was added and the reaction mixture was incubated at 37° C. for 60 min. to allow enzymatic hydrolysis. […]
All peptides were detected by absorbance at 214 nm (UV spectroscopy). The percentage (=%) of hydrolysis was calculated on the basis of the peak area of the undegraded peptide for an enzyme containing sample Y in correlation to a sample containing the same concentration of peptide without enzyme (blank) by the following equation: % hydrolysis=100*(blank−Y) […]

Substance | breakdown of VIP by NEP, degradation at t = 2 h [%] | breakdown of CNP by NEP, degradation at t = 2 h [%]
VIP: vasoactive intestinal peptide, substrate of NEP and hSEP; supplier Bachem [reference compound] | 28 | –
CNP: c-type natriuretic peptide, CNP (32-53), substrate of NEP and hSEP; supplier Bachem [reference compound] | – | 39
